{"source": "PubChem BioAssay AID493014", "about": "(National Center for Advancing Translational Sciences (NCATS), 2011)", "note": "About 170 (0.05%) of roughly 340,000 compounds were called active. The shares of active, inactive and inconclusive entries below differ from those in the screen. Calls come from the whole dose curve; as a rule, active = well fitted inhibition curve with a large enough effect in the signal ratio, with a control signal flat (not every such curve was filed as active); inconclusive = small, poorly fitted or top-dose-only effect, or effect the other way, or a change in a side signal; inactive = flat fitted curve, though single readings scatter; the % refers to the signal ratio. A potency beside an inconclusive call is a rough fit, not a confirmed value. Potency is the fitted concentration of half-maximal effect.", "data": [{"assay": "qHTS Assay to Find Inhibitors of Chronic Active B-Cell Receptor Signaling;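 for activity change, negative = inhibition: plate controls were basal doxycycline-induced cells for no effect and cells given 10 µM MG132 for full effect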", "settings": "ABC-DLBCL IkBa-CBG/CBR reporter, luminescence ratio (green luciferase fused to IkBa over red control in TMD8 lymphoma cells), 4 h; activity change, negative = inhibition: at 46.1 µM (top of the series)", "summary_of_the_method": "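Cell line TMD8 (human ABC DLBCL), stably expressing tet-inducible CBG68-IkBa fusion and CBR; IMDM/0.5% FBS; cpd up to 46 uM; dox induction, 4 h, 37C/5% CO2; dual luminescence; green/red ratio; MG132 control.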", "values": [{"compound": "COC(=O)Nc1ccc(S(=O)(=O)Nc2ccc(C)cc2)cc1", "activity change, negative = inhibition": "inconclusive: -26%"}, {"compound": "CCCCC(=O)OCc1nc2ccccc2s1", "activity change, negative = inhibition": "inactive"}, {"compound": "O=C(CC1S/C(=N/N=C/c2ccco2)NC1=O)Nc1ccccc1", "note": "(configuration not stated)", "activity change, negative = inhibition": "inconclusive: 18.8%"}, {"compound": "Cc1cc(C)c(NC(=O)Cn2c([N+](=O)[O-])cnc2C)c(C)c1", "activity change, negative = inhibition": "inactive"}, {"compound": "O=C(c1ccc2c(c1)OCO2)N1CCC2(CC1)Oc1ccc(Cl)cc1C(=O)C21CC(c2cccnc2)=NO1", "note": "(configuration not stated)", "activity change, negative = inhibition": "inconclusive: 0.913%"}, {"compound": "COc1ccc(O)c(-c2nc(N)nc(N)n2)c1", "activity change, negative = inhibition": "inconclusive: -2.58%"}, {"compound": "Nc1ccccc1SCc1cn2ccccc2n1", "activity change, negative = inhibition": "inconclusive: -0.101%"}, {"compound": "O=C(N/N=C/c1ccc2c(c1)OCCO2)c1ccncc1", "Potency": "inconclusive: 28.2 µM [falling, partial curve]"}, {"compound": "CC(C)(C)c1ccc(C(=O)Oc2ccc3c(c2)OCC3=O)cc1", "activity change, negative = inhibition": "inconclusive: 2.54%"}, {"compound": "Cc1nn(C(C)C(=O)NNC(=S)Nc2ccc(Cl)cc2)c(C)c1[N+](=O)[O-]", "note": "(configuration not stated)", "activity change, negative = inhibition": "inconclusive: 19.9%"}, {"compound": "COc1ccc(-c2cc(-c3ccc(OC)c(OC)c3)n[nH]2)c(O)c1", "Potency": "inconclusive: 29.1 µM [falling, partial curve]"}, {"compound": "CCOC(=O)c1c(C)n(C)c2ccc(OC)c(NC(=O)CN3CCN(C(=O)c4ccco4)CC3)c12", "Potency": "inconclusive: 11.2 µM [falling, partial curve]"}, {"compound": "Cc1cccc(NC(=O)c2ccc(F)c(S(=O)(=O)N(C)C3CCCCC3)c2)c1", "activity change, negative = inhibition": "inconclusive: 18.5%"}, {"compound": "Clc1ccccc1CN(Cc1ccco1)Cc1nnnn1C1CCCC1", "activity change, negative = inhibition": "inconclusive: -7.84%"}, {"compound": "CN1CCN(C(=O)c2ccccc2N(Cc2ccccc2)S(C)(=O)=O)CC1", "activity change, negative = inhibition": "inconclusive: 8.38%"}, {"compound": "O=Cc1[nH]c2ccccc2c1N(C(=O)CCl)c1ccc([N+](=O)[O-])cc1", "activity change, negative = inhibition": "inconclusive: 16%"}, {"compound": "Cc1cc(NC(=O)CSc2nnc(-c3ccc(S(=O)(=O)N4CCCC4)cc3)n2C)no1", "activity change, negative = inhibition": "inconclusive: 6.21%"}, {"compound": "Cc1ccc2cc(CCNC(=O)C3CCCC3)c(=O)[nH]c2c1", "activity change, negative = inhibition": "inconclusive: 6.83%"}, {"compound": "COc1cc(/C=N/Nc2nc3ccccc3s2)ccc1O", "Potency": "inconclusive: 22.4 µM [falling, single point]"}, {"compound": "CCOP(=O)(OCC)C(NC(=O)c1ccc(OC)cc1)c1ccccc1", "note": "(configuration not stated)", "activity change, negative = inhibition": "inactive"}, {"compound": "Cc1ccc(Nc2nc(N)c([N+](=O)[O-])c(N3CCOCC3)n2)cc1", "activity change, negative = inhibition": "inactive"}, {"compound": "CC(=O)c1sc(NC(=O)c2cc(=O)c3ccccc3o2)nc1C", "activity change, negative = inhibition": "inconclusive: 195%"}, {"compound": "O=C(Cc1ccccc1)Nc1nnc(-c2cccc([N+](=O)[O-])c2)s1", "activity change, negative = inhibition": "inconclusive: 9.6%"}, {"compound": "COc1ccc(S(=O)(=O)N2CCN=C2SCc2cccc(C)c2)cc1", "activity change, negative = inhibition": "inconclusive: -1.14%"}, {"compound": "CCC(C(=O)OCC(=O)c1ccc(OC)cc1OC)c1ccccc1", "note": "(configuration not stated)", "activity change, negative = inhibition": "inconclusive: 14.5%"}, {"compound": "O=C(c1ccco1)N(Cc1cccnc1)c1nc2c(F)cccc2s1", "Potency": "inconclusive: 17.8 µM [rising, single point]"}, {"compound": "Cc1cc2ncc(-c3cccs3)nc2cc1C", "activity change, negative = inhibition": "inconclusive: 5.93%"}, {"compound": "C[C@]12CC[C@@H]3c4ccc(O)cc4CC[C@H]3[C@@H]1CC[C@@H]2O", "Potency": "inconclusive: 11.2 µM [falling, partial curve, poor fit]"}, {"compound": "Fc1ccc(C2c3cccn3CCN2C(=S)Nc2cccc(F)c2)cc1", "note": "(configuration not stated)", "activity change, negative = inhibition": "inconclusive: 17.5%"}, {"compound": "CCOC(=O)c1[nH]c(C)c(C(=O)OCC(=O)NC(=O)NC(C)(C)C)c1C", "Potency": "inconclusive: 5.8 µM [falling, single point]"}, {"compound": "COc1cc(OC)cc(C(=O)OCC(=O)Nc2cccc(C(C)=O)c2)c1", "Potency": "inconclusive: 8.91 µM [falling, partial curve]"}, {"compound": "COc1ccccc1/C=C/[C@@H]1C[C@H]2CN(Cc3cccc(Cl)c3)C(=O)[C@]23CCCN13", "activity change, negative = inhibition": "inconclusive: 2.24%"}, {"compound": "CCOC(=O)C1=C(CC)Nc2ccccc2N=C1NC(=O)c1ccc(OC)c(S(=O)(=O)N2CCCCC2C)c1", "note": "(configuration not stated)", "activity change, negative = inhibition": "inactive"}, {"compound": "COCCCNC(=O)c1ccc(N2CCCC2)c(NS(=O)(=O)c2ccc(C)cc2)c1", "activity change, negative = inhibition": "inactive"}, {"compound": "O=C(OCc1csc(Nc2ccccc2)n1)c1ccc(Cl)cc1", "activity change, negative = inhibition": "inactive"}, {"compound": "O=S(=O)(Nc1cccc(CCc2ccccn2)c1)c1ccc(Cl)cc1", "activity change, negative = inhibition": "inconclusive: -8.88%"}, {"compound": "Cc1cc(C)n2c(SCCO)nnc2n1", "activity change, negative = inhibition": "inconclusive: -7.63%"}, {"compound": "O=C(NCC1CCCO1)C(c1cccs1)N(Cc1cccs1)C(=O)c1ccc(-c2ccccc2)[nH]1", "note": "(configuration not stated)", "activity change, negative = inhibition": "inconclusive: 22.5%"}, {"compound": "O=c1c2c3c(sc2nc(NCCO)n1CCc1ccccc1)CCCCC3", "activity change, negative = inhibition": "inconclusive: 16%"}, {"compound": "COc1ccccc1NS(=O)(=O)c1ccc(C)c(NC(=O)NCCCl)c1", "activity change, negative = inhibition": "inconclusive: -0.0104%"}, {"compound": "COc1ccccc1NC(=O)N1CCC(NC(=O)C2CCCCC2)CC1", "activity change, negative = inhibition": "inactive"}, {"compound": "Cc1cccc(-c2nsc(SCC(=O)c3ccc(Cl)cc3)n2)c1", "activity change, negative = inhibition": "inconclusive: 6.91%"}, {"compound": "N#CCCN(C(=O)COC(=O)CCc1nc2ccccc2c(=O)[nH]1)c1ccc(F)cc1", "activity change, negative = inhibition": "inconclusive: 2.62%"}, {"compound": "CC(CCc1ccccc1)NC(=O)COC(=O)c1ccc(NC(=O)CC#N)cc1", "note": "(configuration not stated)", "activity change, negative = inhibition": "inconclusive: -27%"}, {"compound": "O=C(Nc1ccccc1)c1cc([N+](=O)[O-])ccc1Cl", "activity change, negative = inhibition": "inconclusive: -3.11%"}, {"compound": "CSc1nc2ncc3c(n2n1)CC1c2ccccc2CCN1C3=O", "note": "(configuration not stated)", "Potency": "inconclusive: 0.461 µM [rising, full curve]"}, {"compound": "CCn1c(=O)c(C(=O)Nc2ccccc2C)c(O)c2ccccc21", "Potency": "inconclusive: 0.103 µM [falling, partial curve, poor fit]"}, {"compound": "CCOC(=O)C1(Cc2cccc(OC)c2)CCN(CCO)CC1", "activity change, negative = inhibition": "inactive"}, {"compound": "COc1ccc(NC(=O)CNc2ccc(C#N)cc2)cc1", "Potency": "inconclusive: 35.5 µM [falling, single point]"}, {"compound": "COc1cc(NC(=S)N(C)C)c(OC)cc1Cl", "activity change, negative = inhibition": "inconclusive: -1.48%"}, {"compound": "O=C(c1c[nH]c2ccccc12)C(Cl)c1ccccc1", "note": "(configuration not stated)", "activity change, negative = inhibition": "inconclusive: -17%"}, {"compound": "CCCn1c(NC(=O)C2CCN(C(=O)c3ccccc3C)CC2)nc2ccccc21", "activity change, negative = inhibition": "inactive"}, {"compound": "COc1cccc(N=c2oc3ccccc3cc2-c2nc3ccccc3[nH]2)c1", "Potency": "inconclusive: 35.5 µM [falling, partial curve, poor fit]"}, {"compound": "CCOc1ccc(NCc2ccccc2OCc2cccc(F)c2)cc1", "Potency": "inconclusive: 29.1 µM [falling, single point]"}, {"compound": "Brc1ccc(-c2cn3cccnc3n2)cc1", "activity change, negative = inhibition": "inconclusive: 5.08%"}, {"compound": "CCOC(=O)c1ccc(N2CN(CC)CNC2=S)cc1", "activity change, negative = inhibition": "inconclusive: 0.776%"}, {"compound": "N#Cc1c(NC(=S)NC(=O)c2ccccc2)sc2c1CCN(CCc1ccccc1)C2", "activity change, negative = inhibition": "inconclusive: 3.98%"}, {"compound": "Cc1cccc2cc(-c3ccccc3)c(-c3ccccc3)c[n+]12", "activity change, negative = inhibition": "inconclusive: -2.26%"}, {"compound": "COC(CNC(=O)c1ccc2nc(-c3cccs3)c(-c3cccs3)nc2c1)OC", "activity change, negative = inhibition": "inconclusive: 2.46%"}, {"compound": "O=C(Nc1ccn(Cc2ccccc2F)n1)c1ccc(COc2cc(Cl)ccc2Cl)o1", "activity change, negative = inhibition": "inconclusive: 0.993%"}, {"compound": "COc1ccc(CCNC(=O)COc2ccc3c(C)cc(=O)oc3c2)cc1", "activity change, negative = inhibition": "inconclusive: 4.86%"}, {"compound": "O=C1CC(N2CCN(c3ccc(O)cc3)CC2)C(=O)N1Cc1cccs1", "note": "(configuration not stated)", "Potency": "inconclusive: 32.6 µM [falling, partial curve, poor fit]"}, {"compound": "COc1c2ccoc2nc2c(OC)c(OCC(OC(C)=O)C(C)(C)O)ccc12", "note": "(configuration not stated)", "activity change, negative = inhibition": "inconclusive: -75.7%"}, {"compound": "Clc1ccc(Cn2ccc3ccccc32)cn1", "activity change, negative = inhibition": "inconclusive: 5.23%"}, {"compound": "O=C(COc1cccc(Br)c1)N/N=C1\\CCCc2ccccc21", "activity change, negative = inhibition": "inconclusive: 8.29%"}, {"compound": "COc1ccc(-n2c(C)nnc2SCC(=O)NC2CC2)cc1", "activity change, negative = inhibition": "inconclusive: -2.51%"}, {"compound": "COc1ccccc1CNc1nc(SC)ncc1CO", "activity change, negative = inhibition": "inconclusive: -1.4%"}, {"compound": "O=C(NCc1ccncc1)C(=O)Nc1nc(C23CC4CC(CC(C4)C2)C3)cs1", "activity change, negative = inhibition": "inconclusive: -9.6%"}, {"compound": "CCN1CCCC1CN=Cc1c(O)n(-c2ccccc2)c(=O)c2ccccc12", "note": "(configuration not stated)", "activity change, negative = inhibition": "inactive"}, {"compound": "C=CCN(C(=O)Nc1ccc(Cl)cc1)C1CC(=O)N(c2ccc(OC)cc2)C1=O", "note": "(configuration not stated)", "activity change, negative = inhibition": "inconclusive: 7.35%"}, {"compound": "COc1ccc(OC)c(NC(=O)c2ccccc2NS(=O)(=O)c2cccc3cccnc23)c1", "activity change, negative = inhibition": "inconclusive: -1.63%"}, {"compound": "COc1ccc(CCNC(=O)COC(=O)c2ccc([N+](=O)[O-])o2)cc1", "activity change, negative = inhibition": "inactive"}, {"compound": "O=C(O)CSCC(=O)Nc1ccc(-c2nc3ccccc3s2)cc1", "Potency": "inconclusive: 14.1 µM [falling, partial curve, poor fit]"}, {"compound": "O=C(NCSc1ccccc1)c1ccccc1", "activity change, negative = inhibition": "inconclusive: -1.26%"}, {"compound": "COc1ccc(NC(=O)C2=Cc3cccc(OC)c3OC2)cc1", "Potency": "inconclusive: 10 µM [falling, partial curve]"}, {"compound": "CN1c2ccccc2-c2nc3ccccc3n2C1c1ccncc1", "note": "(configuration not stated)", "activity change, negative = inhibition": "inconclusive: 15.1%"}, {"compound": "Cc1ccc(-c2nnn3c2nc(Cl)c2ccccc23)cc1", "Potency": "inconclusive: 17.8 µM [falling, partial curve]"}, {"compound": "Cc1ccc(NS(=O)(=O)c2ccc3c(c2)NC(=O)CCS3)cc1C", "activity change, negative = inhibition": "inconclusive: 0.941%"}, {"compound": "COc1ccccc1N1CCN(/N=C/c2cc([N+](=O)[O-])ccc2Cl)CC1", "activity change, negative = inhibition": "inactive"}, {"compound": "N#CC(C#N)=C1C=CC=CN1/C(=C\\c1ccco1)C(=O)c1ccccc1", "Potency": "inconclusive: 10.3 µM [rising, partial curve]"}, {"compound": "CC(=O)Oc1ccc(/C=C(\\NC(=O)c2ccco2)C(=O)NCc2ccco2)cc1", "activity change, negative = inhibition": "inconclusive: 1.8%"}, {"compound": "CCOc1ccccc1NC(=O)CSc1nccn1-c1ccccc1", "Potency": "inconclusive: 32.6 µM [falling, partial curve, poor fit]"}]}]}
